## Percent effect of library compounds

Sequences of proteins named here, by UniProt entry; tags and fusion partners are left off.
UniProt I6X8D2, whole entry: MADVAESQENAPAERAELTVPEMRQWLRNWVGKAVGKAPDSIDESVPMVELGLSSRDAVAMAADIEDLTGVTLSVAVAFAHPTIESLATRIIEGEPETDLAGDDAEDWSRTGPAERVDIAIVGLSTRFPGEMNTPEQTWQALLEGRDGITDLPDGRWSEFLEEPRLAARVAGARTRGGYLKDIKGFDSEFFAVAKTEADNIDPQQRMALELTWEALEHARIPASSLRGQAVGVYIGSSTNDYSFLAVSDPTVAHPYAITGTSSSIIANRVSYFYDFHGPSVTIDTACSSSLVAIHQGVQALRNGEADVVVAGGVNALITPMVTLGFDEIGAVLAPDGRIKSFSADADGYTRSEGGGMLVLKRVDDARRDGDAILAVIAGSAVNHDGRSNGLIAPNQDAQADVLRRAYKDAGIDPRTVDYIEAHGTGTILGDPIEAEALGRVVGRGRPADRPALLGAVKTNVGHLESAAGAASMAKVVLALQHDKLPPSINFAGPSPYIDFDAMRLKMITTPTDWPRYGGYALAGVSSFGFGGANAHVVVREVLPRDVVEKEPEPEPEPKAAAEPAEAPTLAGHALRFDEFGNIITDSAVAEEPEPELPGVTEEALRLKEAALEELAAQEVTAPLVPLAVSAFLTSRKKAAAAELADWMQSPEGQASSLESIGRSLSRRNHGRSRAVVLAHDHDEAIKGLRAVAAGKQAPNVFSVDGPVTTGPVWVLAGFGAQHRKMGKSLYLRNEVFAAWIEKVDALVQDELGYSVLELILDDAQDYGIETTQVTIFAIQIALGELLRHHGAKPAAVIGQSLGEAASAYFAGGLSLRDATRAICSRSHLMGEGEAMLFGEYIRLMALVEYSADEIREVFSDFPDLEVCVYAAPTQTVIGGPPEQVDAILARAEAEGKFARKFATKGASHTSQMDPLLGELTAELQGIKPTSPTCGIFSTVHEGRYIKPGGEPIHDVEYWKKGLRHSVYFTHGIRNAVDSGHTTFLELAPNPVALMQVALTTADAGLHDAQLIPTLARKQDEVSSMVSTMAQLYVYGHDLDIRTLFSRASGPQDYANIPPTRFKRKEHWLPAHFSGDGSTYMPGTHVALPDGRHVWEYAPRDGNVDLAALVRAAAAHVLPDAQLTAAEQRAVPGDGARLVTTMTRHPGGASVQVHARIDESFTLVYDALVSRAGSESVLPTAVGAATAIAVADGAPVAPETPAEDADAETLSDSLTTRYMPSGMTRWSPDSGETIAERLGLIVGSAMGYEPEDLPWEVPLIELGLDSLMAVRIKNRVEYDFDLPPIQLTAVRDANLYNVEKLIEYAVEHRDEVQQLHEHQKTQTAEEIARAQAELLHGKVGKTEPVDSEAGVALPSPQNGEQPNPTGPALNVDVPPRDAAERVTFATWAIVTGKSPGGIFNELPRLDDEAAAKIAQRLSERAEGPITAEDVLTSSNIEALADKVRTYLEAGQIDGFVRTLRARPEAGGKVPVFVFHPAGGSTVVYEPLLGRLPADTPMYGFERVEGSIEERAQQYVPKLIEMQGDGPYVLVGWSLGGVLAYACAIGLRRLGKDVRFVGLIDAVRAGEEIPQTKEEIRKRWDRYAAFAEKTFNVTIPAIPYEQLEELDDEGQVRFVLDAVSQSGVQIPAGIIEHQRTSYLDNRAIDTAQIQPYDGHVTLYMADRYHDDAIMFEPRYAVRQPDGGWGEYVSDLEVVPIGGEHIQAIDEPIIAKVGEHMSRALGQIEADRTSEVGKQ

The values are deposited in ChEMBL (CHEMBL3988442, “University of Dundee, Small-Polar-MMV Screening Library” (2021)).

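Polyketide synthase Pks13, Mycobacterium tuberculosis (UniProt I6X8D2). Enzyme assay of the thioesterase domain of polyketide synthase 13; the read-out is not stated. Tested at 30 µM. Higher reads as stronger inhibition (inferred from which compounds were picked for retests). Of about 67,000 compounds tested this way, about 300 (0.46%) reached 50% or more in at least one test.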

Values are the deposited “Percent Effect”, in %.
The controls that fix the scale are not given in the record; negative values are as filed.
The compounds are a random part of those screened.

CCCc1cc(C(=O)NCCCn2nnc3ccccc32)no1 gave -6.796%.
O=C(NCC1CCOC1)N1CCN(c2ncccn2)CC1 (centres undefined) gave -24.93%.
O=C(NCc1ccc(-n2cncn2)nc1)N(CC1CCOC1)C1CC1 (centres undefined) gave -11.78%.
CCn1nc2c(cc1=O)CN(Cc1nc(-c3ccccn3)no1)CC2 gave -5.31%.
COc1cccc(-c2nc(CNCCn3cccn3)cs2)c1 gave -3.983%.
CCC(C)N1Cc2c(C(=O)N3CCCC3)nn(C)c2C1 (centres undefined) gave -22.25%.
CC(C)c1nnc2ccc(N3CCCC(C(=O)Nc4nccs4)C3)nn12 (centres undefined) gave -12.01%.
Cn1cc(C2CC(=O)NC23CCN(Cc2ccncc2)CC3)cn1 (centres undefined) gave -35.6%.
Cc1cc(NCCNc2cccnc2)nc(N)n1 gave -12.59%.
Cc1[nH]c2ccc(C(=O)N3C[C@@H](O)[C@H](N4CCOCC4)C3)cc2c1C gave 4.488%.
COc1ccc(C[C@H]2CN(C(=O)CN(C)C)CC[C@H]2OC)cc1 gave -1.89%.
Cc1ccc(OCC(=O)NCC(C)C)nc1 gave -15.27%.
O=C(COc1ccc2cccnc2c1)N1CCN[C@H]2CS(=O)(=O)C[C@H]21 gave -13%.
Cc1noc(C)c1CN1Cc2cnn(C)c2C(COCC2CC2)C1 (centres undefined) gave -22.71%.
COc1ccc(C(=O)NCC(c2cccn2C)N2CCN(C)CC2)cc1 (centres undefined) gave -16.09%.
C[C@@H]1CN(C(=O)CCc2nncn2C)C[C@@]1(O)C1CCC1 gave -10.93%.
CC(C)C(NC(N)=O)C(=O)NCc1ccc(N2CCCC2)nc1 (centres undefined) gave 1.499%.
O=C(NCC1CC1)c1nc(COc2ccc3c(c2)OCO3)no1 gave 2.046%.
Cc1c(C)n(CC(O)CN2CCOCC2)c2c(Cl)cccc12 (centres undefined) gave -11.94%.
O=C(c1ccccn1)N1CCOC2(COCCN(Cc3cc[nH]n3)C2)C1 (centres undefined) gave -38.32%.
Cc1nccnc1N1C[C@H]2CN(C3CCOCC3)C[C@@]2(C(=O)O)C1 gave -3.741%.
CC(C)COC(C)C(=O)N1CCC(C)CC1 (centres undefined) gave -3.074%.
COCC1CN(S(=O)(=O)Cc2ccc(C)cc2)Cc2c1cnn2C (centres undefined) gave -32.05%.
Cn1cnc2c1CCN(CC(=O)N(Cc1ccccc1F)C1CC1)C2 gave -47.83%.
COCCN(C)C[C@@H]1CN(C(=O)c2ccc(C)c(Cl)c2)C[C@@H]1CO gave -26.11%.
CC(NCc1ccccc1O)c1ccc(-n2ccnc2)cc1 (centres undefined) gave -19.12%.
Cc1cc(C)nc(C2(C)CCCN2CCO)n1 (centres undefined) gave 27.11%.
Cc1nnc2n1CCN(C(=O)c1cnc(C3CC3)s1)C2 gave -8.752%.
O=C(NCCCNC(=O)c1ccc(F)cc1F)c1cccc(O)c1 gave 3.793%.
NC(=O)CN1CCC(C(=O)NCCc2nc(-c3ccccc3)cs2)CC1 gave -28.33%.
NC(=O)c1ccc(CN2CCC(N3CCCC3)CC2)cc1 gave -11.92%.
O=C(NCCNc1cnccn1)N1CC=C(c2ccccc2)CC1 gave -8.602%.
c1ccc(-c2cc(CNCCN3CCOCC3)c3nnnn3c2)cc1 gave -6.623%.
CC(C)n1c(C2CCCN(Cc3ccnn3C)C2)nc2ccccc21 (centres undefined) gave -36.99%.
O=C(Nc1ccccc1)C1=NOC2(CCCN(C(=O)C3CCCC3)C2)C1 (centres undefined) gave -9.954%.
O=C(c1ccnc(NC2CC2)c1)N1CCCC1c1cccc(Br)c1 (centres undefined) gave -50.65%.
COc1cccc(OCCN2CC[C@@](O)(C3CCOCC3)[C@H](C)C2)c1 gave -9.803%.
COc1ccc(C(=O)NS(=O)(=O)c2cncc(Br)c2)cc1 gave -6.793%.
c1cnnc(N2CCCC(NCc3cn4ccccc4n3)C2)c1 (centres undefined) gave 3.905%.
Cn1cc(CN2CCCC3(CCN(Cc4ccncc4)C3=O)C2)cn1 (centres undefined) gave -11.92%.
Cc1ccc(Oc2ncccc2CNC(=O)C2COC(=O)N2)c(F)c1F (centres undefined) gave -6.348%.
CN(C)CC(=O)N1CCC2(CC1)COC(COc1ccccn1)C2 (centres undefined) gave -13.95%.
Cc1ccc(CCNC(=O)NCc2cccc(OC(F)F)c2)cn1 gave -27.74%.
Cc1cnc(N2CCCn3c(nnc3CN(C)C(C)C)C2)nc1 gave 6.666%.
CS(=O)(=O)N1CCO[C@@H]2CN(C(=O)N3CCOCC3)CC[C@@H]2C1 gave -2.846%.
O=C(c1cccnc1-c1ccc2c(c1)OCCO2)N1CCCC1 gave -47.29%.
COc1c(CNCc2cccnc2N2CCCCC2)c(C)nn1C gave -0.2977%.

For reference, 3 entries once more:

{"compound": "COc1ccc(C(=O)NCC(c2cccn2C)N2CCN(C)CC2)cc1", "stereo": "centres undefined", "effect": -16.09}
{"compound": "COCC1CN(S(=O)(=O)Cc2ccc(C)cc2)Cc2c1cnn2C", "stereo": "centres undefined", "effect": -32.05}
{"compound": "Cc1nccnc1N1C[C@H]2CN(C3CCOCC3)C[C@@]2(C(=O)O)C1", "effect": -3.741}